# According to the supplement of paper PMC8728848:
# Some of the results follow.
# B1: PX14343C-bfa-541-26-541 (Bacteroides fragilis) (protein)
# chain: KAPLDEIADDSFWSDETLVKYYVNDLYSEISVDGLQLQENRSDNSVSAQRDKYRASWFKFNYDMVSASDPQDDDVWEDYYVKVRKCNRFFERIGTSTIEESEKSRLTGEVHFLRAMFYFEMVKRYGGVILLDKVLTMEDNWEIPRSSEKECYDFILEDLKKATEMLPASYGSREKGRATKGAAYALKSRVELYDKRYEDVIKSCAEVYKLGYELVDGTTPEKYRSIWWTTNKDNKEIIFDVQYKSPDVYNNMMVCNMVTYINDKYGDRGWGGLGPTQELIDAFEMADGTPATQYSQAPADQVFDINTCGIYEGREPRFYANIVFHGSQIFFNADKGAVTVDRYLMDTPDKGDGSLTGYNVWKWIDYDNYNYPYAGAGSPDFSTNWIILRYAEIYLNDAEARLETGDVEGARKAVNMIRQRVGLPDLTESDPEKLRELIRKERRIEFAFEEQRFYDVRRWKIGPETQTTLHGVRFVSPTEFKVTKTDIRTWNDRLYLTPVPHDEIVRSSVLKQNLGY
# Columns and labels:
# Experiment in all cases: glycan array binding signal (z-score within array); higher = stronger binding
# Conditions in all cases: glycan notation: IUPAC condensed, linker removed
# Neu5Ac(a2-8)Neu5Ac = molecular target: Neu5Ac(a2-8)Neu5Ac
# In short: (§1)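 The binding signal is a Z-score computed within each array and averaged over linkers. Arrays of the same protein sequence at different concentrations or buffers were also averaged together. Data originate from 3228 arrays in the Consortium for Functional Glycomics database, kept only where the protein sequence was available.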
# [1] = molecular target: Neu5Ac(a2-8)Neu5Ac(a2-3)Gal(b1-3)GalNAc(b1-4)[Neu5Ac(a2-3)]Gal(b1-4)Glc
# In short: as §1
# [2] = molecular target: Neu5Ac(a2-8)Neu5Ac(a2-3)Gal(b1-3)GalNAc(b1-4)[Neu5Ac(a2-8)Neu5Ac(a2-3)]Gal(b1-4)Glc
# In short: as §1
# [3] = molecular target: Neu5Ac(a2-8)Neu5Ac(a2-3)Gal(b1-4)Glc
# In short: as §1
# [4] = molecular target: Neu5Ac(a2-8)Neu5Ac(a2-3)Gal(b1-4)GlcNAc
# In short: as §1
# [5] = molecular target: Neu5Ac(a2-8)Neu5Ac(a2-3)[Gal(b1-3)GalNAc(b1-4)]Gal(b1-4)Glc
# In short: as §1
# [6] = molecular target: Neu5Ac(a2-8)Neu5Ac(a2-3)[GalNAc(b1-4)]Gal(b1-4)Glc
# In short: as §1
# [7] = molecular target: Neu5Ac(a2-8)Neu5Ac(a2-8)Neu5Ac
# In short: as §1
# [8] = molecular target: Neu5Ac(a2-8)Neu5Ac(a2-8)Neu5Ac(a2-3)Gal(b1-4)Glc
# In short: as §1
# [9] = molecular target: Neu5Ac(a2-8)Neu5Ac(a2-8)Neu5Ac(a2-3)[Gal(b1-3)GalNAc(b1-4)]Gal(b1-4)Glc
# In short: as §1
# [10] = molecular target: Neu5Ac(a2-8)Neu5Ac(a2-8)Neu5Ac(a2-3)[GalNAc(b1-4)]Gal(b1-4)Glc
# In short: as §1
# [11] = molecular target: Neu5Ac(a2-8)Neu5Ac(a2-8)Neu5Ac(a2-8)Neu5Ac(a2-3)[GalNAc(b1-4)]Gal(b1-4)Glc
# In short: as §1
# [12] = molecular target: Neu5Ac(a2-8)Neu5Gc(a2-3)Gal(b1-4)GlcNAc
# In short: as §1
# [13] = molecular target: Neu5Ac(b2-6)Gal(b1-4)GlcNAc
# In short: as §1
# Neu5Ac(b2-6)GalNAc = molecular target: Neu5Ac(b2-6)GalNAc
# In short: as §1
# [14] = molecular target: Neu5Ac9Ac(a2-3)Gal(b1-3)GlcNAc
# In short: as §1
# [15] = molecular target: Neu5Ac9Ac(a2-3)Gal(b1-4)GlcNAc
# In short: as §1
# [16] = molecular target: Neu5Ac9Ac(a2-6)Gal(b1-4)GlcNAc
# In short: as §1
# [17] = molecular target: Neu5Gc(a2-3)Gal(b1-3)GlcNAc
# In short: as §1
# [18] = molecular target: Neu5Gc(a2-3)Gal(b1-3)[Fuc(a1-4)]GlcNAc
# In short: as §1
# Neu5Gc(a2-3)Gal(b1-4)Glc = molecular target: Neu5Gc(a2-3)Gal(b1-4)Glc
# In short: as §1
# [19] = molecular target: Neu5Gc(a2-3)Gal(b1-4)GlcNAc
# In short: as §1
# [20] = molecular target: Neu5Gc(a2-3)Gal(b1-4)GlcNAc(b1-3)Gal(b1-4)GlcNAc(b1-2)Man(a1-3)[Neu5Gc(a2-3)Gal(b1-4)GlcNAc(b1-3)Gal(b1-4)GlcNAc(b1-2)Man(a1-6)]Man(b1-4)GlcNAc(b1-4)GlcNAc
# In short: as §1
# [21] = molecular target: Neu5Gc(a2-3)Gal(b1-4)[Fuc(a1-3)]GlcNAc
# In short: as §1
# [22] = molecular target: Neu5Gc(a2-6)Gal(b1-4)GlcNAc
# In short: as §1
# Neu5Gc(a2-6)GalNAc = molecular target: Neu5Gc(a2-6)GalNAc
# In short: as §1
# [23] = molecular target: Neu5Gc(a2-8)Neu5Ac(a2-3)Gal(b1-4)GlcNAc
# In short: as §1
# [24] = molecular target: Neu5Gc(a2-8)Neu5Gc(a2-3)Gal(b1-4)GlcNAc
# In short: as §1
# [25] = molecular target: Neu5Gc(a2-8)Neu5Gc(a2-3)Gal(b1-4)GlcNAc(b1-3)Gal(b1-4)GlcNAc
# In short: as §1
# [26] = molecular target: Neu5Gc(a2-8)Neu5Gc(a2-6)Gal(b1-4)GlcNAc
# In short: as §1
# [27] = molecular target: Neu5Gc(b2-6)Gal(b1-4)GlcNAc
# In short: as §1
binder,measurement,setting,value
B1,glycan array binding signal (z-score),Neu5Ac(a2-8)Neu5Ac,-0.451
same,glycan array binding signal (z-score),[1],-0.491
same,glycan array binding signal (z-score),[2],-0.267
same,glycan array binding signal (z-score),[3],-1.29
same,glycan array binding signal (z-score),[4],-1.16
same,glycan array binding signal (z-score),[5],-0.215
same,glycan array binding signal (z-score),[6],-0.488
same,glycan array binding signal (z-score),[7],-0.546
same,glycan array binding signal (z-score),[8],-0.275
same,glycan array binding signal (z-score),[9],0.045
same,glycan array binding signal (z-score),[10],-1.05
same,glycan array binding signal (z-score),[11],1.9
same,glycan array binding signal (z-score),[12],-0.49
same,glycan array binding signal (z-score),[13],-0.351
same,glycan array binding signal (z-score),Neu5Ac(b2-6)GalNAc,-0.477
same,glycan array binding signal (z-score),[14],-0.209
same,glycan array binding signal (z-score),[15],-0.332
same,glycan array binding signal (z-score),[16],0.204
same,glycan array binding signal (z-score),[17],0.179
same,glycan array binding signal (z-score),[18],0.036
same,glycan array binding signal (z-score),Neu5Gc(a2-3)Gal(b1-4)Glc,-0.166
same,glycan array binding signal (z-score),[19],0.294
same,glycan array binding signal (z-score),[20],-0.793
same,glycan array binding signal (z-score),[21],-0.364
same,glycan array binding signal (z-score),[22],-0.535
same,glycan array binding signal (z-score),Neu5Gc(a2-6)GalNAc,-0.165
same,glycan array binding signal (z-score),[23],0.105
same,glycan array binding signal (z-score),[24],-0.342
same,glycan array binding signal (z-score),[25],-0.366
same,glycan array binding signal (z-score),[26],0.394
same,glycan array binding signal (z-score),[27],0.692

# Reprinted at random: 2 entries already listed.
binder,measurement,setting,value
B1,glycan array binding signal (z-score),[10],-1.05
same,glycan array binding signal (z-score),[2],-0.267
